Data source: PubChem BioAssay AID1259282 (Sanger Institute, 2017)

- Screen: 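Kinase knock-downs that work with targeted colorectal cancer drugs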 (primary screen)
- Cells: DIFI human colorectal cancer cell line
- Knock-down reagent: siRNA pool against human genes
- Challenge: anchor drug at a mild dose (BYL719 1 µM, cetuximab 5 µg/ml, trametinib 10 nM) or DMSO vehicle; exposure time not given
- Read-out: 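Viability relative to non-targeting pool wells, replicate mean, in DMSO or low-dose BYL719, cetuximab or trametinib; robust z-score without drug; synergy score per drug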
- Direction: robust z-score, knock-down alone: higher = more viable cells than typical knock-down; viability, knock-down alone: higher = more viable cells; synergy score with trametinib and synergy score with cetuximab and synergy score with BYL719: higher = stronger combined killing with drug
- Active means: 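Essential when the robust z-score of the knock-down without drug falls below -3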
- Calls: active = essential (knock-down alone, z below -3); inactive = not essential
The whole screen tested 794 reagents; below is an unselected part. 11 of all reagents (1.4%) were called active. 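Calls flag knock-downs that lower viability without drug; drug synergy appears only in the synergy scores; exposure time not stated.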 A number with no mark means an inactive call. No viability above 1 is reported: the scale is capped. The record does not give: the amount of reagent, the time to read-out.

| gene | robust z-score, knock-down alone | viability, knock-down alone (fraction of control) | synergy score with trametinib | synergy score with cetuximab | synergy score with BYL719 |
| --- | --- | --- | --- | --- | --- |
| NIM1K (NIM1 serine/threonine protein kinase) | 0.633 | 0.988 | 0.0803 | -0.017 | -0.192 |
| CDK17 (cyclin dependent kinase 17) | 0.182 | 0.923 | -0.15 | -0.136 | -0.0949 |
| FGFR1 (fibroblast growth factor receptor 1) | 0.715 | 1 | 0.0476 | -0.00709 | -0.255 |
| ASPM (assembly factor for spindle microtubules) | 0.422 | 0.958 | 0.224 | 0.147 | 0.0661 |
| PAK4 (p21 (RAC1) activated kinase 4) | 0.308 | 0.941 | 0.14 | -0.0199 | -0.247 |
| ELP1 (elongator acetyltransferase complex subunit 1) | 0.434 | 0.959 | -0.0522 | -0.0829 | -0.103 |
| PAK3 (p21 (RAC1) activated kinase 3) | -0.0644 | 0.887 | 0.176 | 0.0295 | -0.0315 |
| SRGAP3 (SLIT-ROBO Rho GTPase activating protein 3) | 0.715 | 1 | -0.0782 | -0.0398 | -0.29 |
| DLG4 (discs large MAGUK scaffold protein 4) | 0.715 | 1 | 0.144 | 0.141 | -0.12 |
| FXR1 (FMR1 autosomal homolog 1) | 0.715 | 1 | 0.0433 | -0.0223 | -0.345 |
| AK4 (adenylate kinase 4) | 0.715 | 1 | 0.18 | 0.0813 | 0.0775 |
| EXOSC10 (exosome component 10) | 0.0463 | 0.903 | -0.0245 | -0.123 | -0.111 |
| HUNK (hormonally up-regulated Neu-associated kinase) | -2.37 | 0.552 | 0.13 | 0.0877 | 0.0475 |
| MAGI1 | -0.148 | 0.875 | 0.182 | 0.118 | 0.049 |
| PRPS2 (phosphoribosyl pyrophosphate synthetase 2) | -0.02 | 0.893 | 0.0266 | -0.0127 | -0.115 |
| PRKCD (protein kinase C delta) | -0.385 | 0.84 | -0.0395 | -0.118 | 0.051 |
| STK26 (serine/threonine kinase 26) | -1.51 | 0.676 | -0.0534 | -0.0017 | -0.24 |
| RIOK3 (RIO kinase 3) | -0.628 | 0.805 | 0.106 | 0.0151 | 0.0177 |
| MAP2K4 (mitogen-activated protein kinase kinase 4) | 0.715 | 1 | 0.129 | 0.0611 | -0.0861 |
| NF1 (neurofibromin 1) | 0.715 | 1 | -0.0369 | -0.0532 | -0.292 |
| DLG1 (discs large MAGUK scaffold protein 1) | -0.732 | 0.79 | -0.103 | -0.0584 | -0.239 |
| KCNH8 (potassium voltage-gated channel subfamily H member 8) | -3.15 (active) | 0.438 | 0.161 | 0.0692 | 0.0361 |
| ROCK1 (Rho associated coiled-coil containing protein kinase 1) | 0.715 | 1 | -0.116 | -0.0205 | -0.256 |
| BRAF (B-Raf proto-oncogene, serine/threonine kinase) | -0.327 | 0.849 | 0.202 | 0.11 | -0.00147 |
| STK24 (serine/threonine kinase 24) | 0.715 | 1 | -0.0822 | 0.0763 | -0.241 |
| PIP4K2C (phosphatidylinositol-5-phosphate 4-kinase type 2 gamma) | 0.715 | 1 | -0.174 | 0.0294 | -0.139 |
| TRIB1 (tribbles pseudokinase 1) | 0.715 | 1 | 0.0199 | -0.0144 | -0.15 |
| CALM3 (calmodulin 3) | 0.715 | 1 | -0.0531 | -0.0238 | -0.212 |
| GALK2 (galactokinase 2) | -2.85 | 0.482 | 0.0503 | 0.0554 | 0.0667 |
| RET (ret proto-oncogene) | -0.258 | 0.859 | 0.119 | 0.0236 | -0.115 |
| CDK5 (cyclin dependent kinase 5) | 0.715 | 1 | -0.0744 | -0.109 | -0.118 |
| PRKAB1 (protein kinase AMP-activated non-catalytic subunit beta 1) | -1.09 | 0.738 | 0.0892 | -0.0962 | -0.098 |
| TAOK3 (TAO kinase 3) | -0.39 | 0.84 | 0.0123 | -0.0786 | -0.0369 |
| DLG3 (discs large MAGUK scaffold protein 3) | 0.715 | 1 | 0.0174 | 0.0217 | -0.124 |
| BPTF (bromodomain PHD finger transcription factor) | -2.38 | 0.551 | 0.151 | 0.0631 | -0.066 |
| RFK (riboflavin kinase) | 0.715 | 1 | -0.00331 | -0.0427 | -0.0698 |
| GALK1 (galactokinase 1) | -1.13 | 0.732 | -0.0821 | -0.209 | -0.0334 |
| MAP4K4 (mitogen-activated protein kinase kinase kinase kinase 4) | 0.715 | 1 | 0.0584 | -0.0577 | -0.266 |
| PDIK1L (PDLIM1 interacting kinase 1 like) | -0.249 | 0.86 | 0.0341 | -0.0698 | -0.233 |
| PDXK (pyridoxal kinase) | 0.715 | 1 | -0.305 | -0.173 | -0.142 |
| NEK4 (NIMA related kinase 4) | 0.296 | 0.939 | 0.0466 | -0.0454 | -0.151 |
| PLK3 (polo like kinase 3) | 0.715 | 1 | -0.105 | -0.148 | -0.14 |
| PRKCE (protein kinase C epsilon) | -2.3 | 0.563 | -0.0157 | -0.137 | -0.0349 |
| TLK2 (tousled like kinase 2) | 0.529 | 0.973 | -0.273 | -0.279 | -0.262 |
| IP6K2 (inositol hexakisphosphate kinase 2) | -0.287 | 0.855 | 0.258 | 0.179 | 0.0483 |
| FN1 (fibronectin 1) | 0.715 | 1 | 0.0962 | -0.0478 | -0.0664 |
| CDK9 (cyclin dependent kinase 9) | 0.715 | 1 | 0.0285 | 0.0266 | -0.255 |
| PAK5 (p21 (RAC1) activated kinase 5) | -1.23 | 0.718 | 0.15 | 0.102 | -0.216 |
| MAPK9 (mitogen-activated protein kinase 9) | 0.715 | 1 | -0.12 | -0.0799 | -0.249 |
| CPNE3 (copine 3) | 0.715 | 1 | 0.0557 | 0.0698 | -0.268 |
